From article PMC5936716
Results are given in words; binding and its absence hold for the method and conditions named. In cells and extracts the contact can be indirect. Some results given as binding are weak or reduced against the parent protein; the word gives no strength.

By UniProt entry, the sequences of proteins in these tests, tags left out. Where a name states a change or a piece, a line headed by the entry shows the natural chain unless it says otherwise. Residues count along the entry.
UniProt O95863: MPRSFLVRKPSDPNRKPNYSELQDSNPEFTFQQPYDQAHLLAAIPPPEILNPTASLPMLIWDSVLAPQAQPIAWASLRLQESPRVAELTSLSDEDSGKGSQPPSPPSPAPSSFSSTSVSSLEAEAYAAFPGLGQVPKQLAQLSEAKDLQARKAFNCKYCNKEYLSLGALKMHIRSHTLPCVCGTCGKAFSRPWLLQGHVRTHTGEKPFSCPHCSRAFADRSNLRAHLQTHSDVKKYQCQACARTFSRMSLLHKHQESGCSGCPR
GST-Snail-1-153: residues 1-153 of O95863
GST-Snail-153-264: residues 153-264 of O95863
UniProt Q05D32: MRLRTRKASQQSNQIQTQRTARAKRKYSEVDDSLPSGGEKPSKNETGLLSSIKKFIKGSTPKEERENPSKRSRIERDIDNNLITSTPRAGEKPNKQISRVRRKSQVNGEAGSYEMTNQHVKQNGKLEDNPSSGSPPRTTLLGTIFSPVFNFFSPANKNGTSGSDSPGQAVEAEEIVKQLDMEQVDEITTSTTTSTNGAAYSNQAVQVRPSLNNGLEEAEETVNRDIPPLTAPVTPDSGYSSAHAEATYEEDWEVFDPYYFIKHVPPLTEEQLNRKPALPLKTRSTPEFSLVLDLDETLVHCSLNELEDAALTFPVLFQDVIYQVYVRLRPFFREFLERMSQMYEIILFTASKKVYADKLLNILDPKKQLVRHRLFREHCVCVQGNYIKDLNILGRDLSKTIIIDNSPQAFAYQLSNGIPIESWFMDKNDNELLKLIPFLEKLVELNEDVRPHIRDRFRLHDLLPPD

Tests used:
[1] = biological target: HA-Snail-153-264 (C-terminal region of Snail) (UniProt O95863); assay: co-IP; HEK293T co-transfected with HA-Snail (wild type or deletion mutants) and FLAG-SCP4 or FLAG-SCP4DN; anti-HA IP of Snail; blot for Snail-bound SCP4
[2] = biological target: HA-Snail-1-153 (N-terminal region of Snail) (UniProt O95863); assay: as above
[3] = biological target: HA-Snail wild type, full length (HEK293T) (UniProt O95863); assay: as above
[4] = biological target: FLAG-SCP4DN, phosphatase-dead mutant (D293E, D295N) (HEK293T) (UniProt Q05D32); assay: co-IP; HEK293T co-transfected with HA-Snail and FLAG-SCP4 or FLAG-SCP4DN; anti-FLAG IP with protein A Sepharose at 4°C for 4 h in Myc lysis buffer (137 mM NaCl, 20 mM Tris-HCl pH 8.0, 1% Nonidet P-40); blot for Snail
[5] = biological target: FLAG-SCP4 wild type, full length (HEK293T) (UniProt Q05D32); assay: as above
[6] = biological target: HA-Snail (stably expressed in MCF10A cells) (UniProt O95863); assay: co-IP; lysates of MCF10A cells stably expressing HA-Snail immunoprecipitated with anti-HA antibody or control IgG; western blot for endogenous SCP4
GST-Snail-1-153 = GST-Snail-1-153 (UniProt O95863); assay: pull-down; in vitro translated FLAG-SCP4 incubated with purified glutathione bead-bound GST, GST-Snail, GST-Snail-1-153 or GST-Snail-153-264; western blot; only the target purified
GST-Snail-153-264 = GST-Snail-153-264 (UniProt O95863); assay: as above
[7] = biological target: Full length GST-Snail fusion protein (UniProt O95863); assay: as above
GST-SCP4 fusion protein = GST-SCP4 fusion protein (UniProt Q05D32); assay: pull-down; in vitro translated HA-Snail incubated with purified glutathione bead-bound GST or GST-SCP4; western blot; only the target purified

“FLAG-SCP4 wild type, full length (HEK293T) (from UniProt Q05D32 1-466) (enzyme)” was tested, and the binding [1] was “binds weakly”, the binding [2] was “binds” and the binding [3] was “binds”.

For “FLAG-SCP4DN, phosphatase-dead mutant (D293E, D295N) (HEK293T) (from UniProt Q05D32 1-466) (enzyme)”, the binding [3] was “binds”.

For “HA-Snail wild type, full length (HEK293T) (from UniProt O95863 1-264)”, the binding [4] was “binds” and the binding [5] was “binds”.

“endogenous SCP4 (CTDSPL2, C-terminal domain small phosphatase-like 2) (from UniProt Q05D32 1-466) (enzyme)” was tested, and the binding [6] was “binds”.

With “in vitro translated FLAG-SCP4 (from UniProt Q05D32 1-466) (enzyme)” the binding (GST-Snail-1-153) was “binds”, the binding (GST-Snail-153-264) was “binds weakly” and the binding [7] was “binds”.

In the case of “in vitro translated HA-Snail (from UniProt O95863 1-264)”, the binding (GST-SCP4 fusion protein) is reported as “binds”.
